# Reference: paper PMC5996148
# Sequences of proteins named here, by UniProt entry; tags and fusion partners are left off.
# UniProt O43676, whole entry: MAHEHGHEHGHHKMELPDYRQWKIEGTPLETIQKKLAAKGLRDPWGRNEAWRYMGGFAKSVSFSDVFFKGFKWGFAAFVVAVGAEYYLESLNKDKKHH
# Some of the results follow. For some of these results: The source does not settle which construct or isoform was used.
# Assays:
# Assay in all cases: protein microarray (ProtoArray v5.0), streptavidin-Alexa Fluor 647
# Settings in all cases: 3'-biotin; 20 mM Tris (pH 7.5), 5 mM MgCl2, 100 mM KCl, 0.1% Tween-20, A/T-rich and random oligonucleotide blockers; temperature not stated; high values mean tight binding
# [1] = test system: NDUFB10 (human)
# [2] = target: NDUFB3 (UniProt O43676)
# [3] = test system: NEDD8-activating enzyme E1 catalytic subunit (human)
# [4] = test system: NETO1 (human)
# [5] = test system: NFKBIB (human)
# [6] = test system: NFU1 iron-sulfur cluster scaffold homolog, mitochondrial (human)
# [7] = test system: NINJ1 (human)
# [8] = test system: NINJ2 (human)
# [9] = test system: NIPSNAP3B (human)
# [10] = test system: NIT2 (human)
sequence,measurement,setting,value
GGGGACAGGGGTATGGGGAGGGG [G4-3 biotinylated (CtG)],binding signal,[1],-0.315 z-score
same,binding signal,[2],-0.32 z-score
same,binding signal,[3],-0.334 z-score
same,binding signal,[4],-0.325 z-score
same,binding signal,[5],-0.335 z-score
same,binding signal,[6],-0.336 z-score
same,binding signal,[7],-0.297 z-score
same,binding signal,[8],-0.32 z-score
same,binding signal,[9],-0.322 z-score
same,binding signal,[10],-0.33 z-score

# An excerpt of these results, bar-delimited.
sequence | measurement | setting | value
GGGGACAGGGGTATGGGGAGGGG [G4-3 biotinylated (CtG)] | binding signal | [8] | -0.32 z-score
same | binding signal | [9] | -0.322 z-score
